Library screen at single concentrations

Chains of the proteins cited; added tags and fusions are not shown. Residues count along the entry.
UniProt I6X8D2, whole entry: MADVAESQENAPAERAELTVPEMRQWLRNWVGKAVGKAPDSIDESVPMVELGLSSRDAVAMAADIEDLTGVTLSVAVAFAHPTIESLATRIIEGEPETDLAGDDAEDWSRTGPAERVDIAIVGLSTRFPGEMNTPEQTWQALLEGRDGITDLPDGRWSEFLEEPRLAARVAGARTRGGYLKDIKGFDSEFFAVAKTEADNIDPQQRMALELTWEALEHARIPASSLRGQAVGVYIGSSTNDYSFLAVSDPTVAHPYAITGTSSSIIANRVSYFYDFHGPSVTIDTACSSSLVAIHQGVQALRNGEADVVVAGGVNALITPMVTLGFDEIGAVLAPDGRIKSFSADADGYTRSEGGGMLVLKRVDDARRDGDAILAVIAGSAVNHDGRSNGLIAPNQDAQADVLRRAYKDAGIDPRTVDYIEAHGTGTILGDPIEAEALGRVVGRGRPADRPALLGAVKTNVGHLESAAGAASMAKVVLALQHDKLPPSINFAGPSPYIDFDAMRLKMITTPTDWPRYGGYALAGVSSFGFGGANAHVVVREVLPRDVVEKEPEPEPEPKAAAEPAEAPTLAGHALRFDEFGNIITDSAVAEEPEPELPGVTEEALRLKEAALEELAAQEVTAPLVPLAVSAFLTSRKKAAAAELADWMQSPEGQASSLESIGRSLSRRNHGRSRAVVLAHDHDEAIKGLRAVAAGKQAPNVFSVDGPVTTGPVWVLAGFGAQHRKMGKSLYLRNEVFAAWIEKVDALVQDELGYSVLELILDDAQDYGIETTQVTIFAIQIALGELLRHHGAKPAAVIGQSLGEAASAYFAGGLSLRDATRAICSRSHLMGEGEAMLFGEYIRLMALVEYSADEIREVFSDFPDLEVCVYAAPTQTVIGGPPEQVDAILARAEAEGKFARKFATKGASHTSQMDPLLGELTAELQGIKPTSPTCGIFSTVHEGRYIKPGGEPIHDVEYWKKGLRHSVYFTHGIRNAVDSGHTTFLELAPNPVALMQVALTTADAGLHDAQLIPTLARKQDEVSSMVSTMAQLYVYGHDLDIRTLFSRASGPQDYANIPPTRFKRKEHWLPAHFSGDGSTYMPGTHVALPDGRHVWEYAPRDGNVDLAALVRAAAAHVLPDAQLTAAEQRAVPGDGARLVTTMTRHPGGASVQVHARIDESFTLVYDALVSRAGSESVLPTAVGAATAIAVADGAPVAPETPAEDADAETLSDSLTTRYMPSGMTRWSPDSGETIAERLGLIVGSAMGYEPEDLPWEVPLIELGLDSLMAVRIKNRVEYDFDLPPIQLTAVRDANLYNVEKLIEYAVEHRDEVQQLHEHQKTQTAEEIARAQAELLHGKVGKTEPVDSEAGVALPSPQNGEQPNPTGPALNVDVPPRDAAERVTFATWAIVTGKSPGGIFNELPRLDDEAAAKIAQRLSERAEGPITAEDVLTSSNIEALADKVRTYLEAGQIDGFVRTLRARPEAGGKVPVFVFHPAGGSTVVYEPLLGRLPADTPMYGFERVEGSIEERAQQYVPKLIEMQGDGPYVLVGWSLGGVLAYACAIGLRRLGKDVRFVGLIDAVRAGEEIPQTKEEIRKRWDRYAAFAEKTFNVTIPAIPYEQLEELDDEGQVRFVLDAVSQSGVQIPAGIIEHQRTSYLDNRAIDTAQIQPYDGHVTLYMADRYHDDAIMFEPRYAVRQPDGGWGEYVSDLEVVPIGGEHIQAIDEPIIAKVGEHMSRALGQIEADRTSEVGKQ
UniProt Q4DA54, 1-478: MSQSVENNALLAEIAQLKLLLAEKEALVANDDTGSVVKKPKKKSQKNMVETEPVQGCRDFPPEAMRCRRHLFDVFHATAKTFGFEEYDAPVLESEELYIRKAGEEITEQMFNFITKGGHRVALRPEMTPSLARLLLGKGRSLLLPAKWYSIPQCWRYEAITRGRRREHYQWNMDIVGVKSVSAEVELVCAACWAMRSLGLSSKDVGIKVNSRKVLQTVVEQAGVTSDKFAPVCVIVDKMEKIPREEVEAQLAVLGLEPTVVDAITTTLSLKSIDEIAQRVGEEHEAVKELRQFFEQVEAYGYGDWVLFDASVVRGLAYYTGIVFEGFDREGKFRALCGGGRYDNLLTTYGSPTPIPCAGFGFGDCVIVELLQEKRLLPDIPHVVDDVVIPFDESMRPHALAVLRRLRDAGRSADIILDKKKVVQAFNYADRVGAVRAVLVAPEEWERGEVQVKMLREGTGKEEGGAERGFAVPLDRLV
UniProt P9WPC5, whole entry: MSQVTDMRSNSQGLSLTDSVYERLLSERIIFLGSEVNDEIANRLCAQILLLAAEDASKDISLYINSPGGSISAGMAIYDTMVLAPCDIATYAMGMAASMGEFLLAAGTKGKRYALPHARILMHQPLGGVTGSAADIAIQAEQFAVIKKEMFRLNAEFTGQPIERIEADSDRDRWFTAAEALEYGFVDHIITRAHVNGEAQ
UniProt P9WPC3, whole entry partner: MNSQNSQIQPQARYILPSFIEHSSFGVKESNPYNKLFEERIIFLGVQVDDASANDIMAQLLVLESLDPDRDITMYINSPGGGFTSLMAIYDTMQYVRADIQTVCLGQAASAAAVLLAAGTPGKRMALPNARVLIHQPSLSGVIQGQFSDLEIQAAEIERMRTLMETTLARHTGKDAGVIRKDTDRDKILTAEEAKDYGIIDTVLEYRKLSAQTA
UniProt A4I591, 1-473: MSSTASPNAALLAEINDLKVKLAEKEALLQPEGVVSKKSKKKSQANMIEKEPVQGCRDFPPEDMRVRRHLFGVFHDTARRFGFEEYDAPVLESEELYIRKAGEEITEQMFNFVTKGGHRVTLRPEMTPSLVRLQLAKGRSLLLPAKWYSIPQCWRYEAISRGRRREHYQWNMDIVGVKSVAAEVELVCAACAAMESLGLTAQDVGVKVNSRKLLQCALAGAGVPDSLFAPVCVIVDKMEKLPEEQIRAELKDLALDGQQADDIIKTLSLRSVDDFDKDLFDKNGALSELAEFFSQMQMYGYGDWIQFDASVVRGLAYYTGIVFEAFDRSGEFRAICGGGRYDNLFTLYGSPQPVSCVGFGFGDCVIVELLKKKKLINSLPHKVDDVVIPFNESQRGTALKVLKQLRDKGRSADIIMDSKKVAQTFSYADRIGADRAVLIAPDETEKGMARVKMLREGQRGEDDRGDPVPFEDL

Pks13 thioesterase: 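Polyketide synthase Pks13, Mycobacterium tuberculosis (UniProt I6X8D2). Enzyme assay of the thioesterase domain of polyketide synthase 13; the read-out is not stated. Compounds at 30 µM. Higher reads as stronger inhibition (inferred from which compounds were picked for retests). Of about 67,000 compounds tested this way, about 300 (0.46%) reached 50% or more in at least one test.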
TcHisRS: 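Enzyme assay of histidyl-tRNA synthetase; the read-out is not stated. Target: Histidine-tRNA ligase, Trypanosoma cruzi CL Brener (UniProt Q4DA54). Tested at 30 µM. The record gives no direction; compounds that gave an IC50 in retests scored well above the rest, so higher reads as stronger inhibition. Of about 69,000 compounds tested this way, about 31 (0.045%) reached 50% or more in at least one test.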
ClpP1P2: 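ClpP1P2, Mycobacterium tuberculosis (UniProt P9WPC5 and UniProt P9WPC3). Protease assay of ClpP1P2, read by the AMC dye that it sets free. Tested at 50 µM. Direction is inferred from only a few compounds that gave an IC50; most scored high, so higher reads as stronger inhibition. Most other retested compounds had strongly negative values. About 69,000 compounds were tested under these conditions; 0.015% (about 10) showed 50% or more at least once.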
Leishmania in macrophages: 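Cell assay of Leishmania donovani living inside macrophages; the read-out is not stated. Compounds at 30 µM. The record gives no direction; compounds that gave an IC50 in retests scored well above the rest, so higher reads as stronger inhibition. Of about 69,000 compounds tested this way, about 1,000 (1.5%) reached 50% or more in at least one test.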
LiHisRS: 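Enzyme assay of histidyl-tRNA synthetase; the read-out is not stated. Target: Histidine-tRNA ligase, Leishmania infantum (UniProt A4I591). Concentration: 30 µM. The record gives no direction; compounds that gave an IC50 in retests scored well above the rest, so higher reads as stronger inhibition. The assay is labelled LdHisRS but filed under L. infantum. Size under these conditions: about 69,000 compounds, about 410 of them at 50% or above in at least one test.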

Each number is a percent effect as filed. The controls that fix the scale are not given in the record; negative values are as filed. Compounds were drawn at random from those tested, without regard to their results. Two or more numbers in one place are separate tests of the same structure; such repeats can differ widely. A dash means the value is not listed here; it may have been measured.

Compound,Pks13 thioesterase,TcHisRS,ClpP1P2,Leishmania in macrophages,LiHisRS
CC(C)N1CCn2c(COCC3CCOCC3)cnc2C1C (centres undefined),-16.7,4.813,4.079,-,12.82
COc1cccc(Cn2cc(N3C(=O)CCC3=O)cn2)c1,-5.403,5.263,-8.159,-27.97,5.31
CCS(=O)(=O)N1CCCc2ccc(NC(=O)Cc3ccc(F)cc3)cc21,-14.59,1.087,10.93,35.88,12.62
CC(=O)N1CCC2(CN(CC3CCCC3)C2)C1,-34.11,-1.942,-15.08,-,11.65
Cc1ccnc(OC[C@]23COC[C@H]2CN(C(=O)C2=CCCCC2)C3)n1,-9.859,9.346,-4.344,-,5.556
COCC1CN(C(=O)CNC(C)=O)Cc2ncnn2C1 (centres undefined),-14.99,0,-2.059,35.54,-25.47
O=c1cc(CNS(=O)(=O)C2CC2)nc2n1CCCN(CC1CC1)C2,-5.45,9.548,-3.065,-,17.82
Fc1ccc(N2CCC3(CC2)CC(OCc2cccnc2)CO3)cc1.O=C(O)C(F)(F)F (centres undefined),-,-,-,16.15 & -16.5,-
CNS(=O)(=O)c1cccc(CNC(=O)CCc2ccsc2)c1,-18.52,-3.448,9.195,28.11,13.39
Cc1ccc(CNC(=O)NCC(=O)NC(C)(C)C)c(N2CCCC2)c1,-30.63,1.961,0.8148,19.84,8.333
CN(Cc1cccnc1)C1CC2(CCN(C(=O)c3ccnnc3)CC2)C1,16.76,8.046,7.798,5.177,15.79
Cc1noc(-c2cnc(NC(C)C)nc2-c2ccco2)c1C,21.04,9.579,-11.09,45.13,15.83
COc1cccc(-c2nnn(C3CCN(CC(F)(F)F)C3=O)n2)c1 (centres undefined),-40.74,3.017,-10.9,9.568,21.52
CCn1nc2c(cc1=O)CN(CC(=O)Nc1cc(C(C)C)no1)CC2,-20.74,2.116,-2.584,0.7168,21.21
COCC1CC2(CCN(C(=O)c3cccc(C)c3)CC2)CO1 (centres undefined),-6.544,2.174,-4.239,-2.125,6.796
[H][C@@]12C[C@H](C(=O)N3CCCCO3)CN(C(=O)c3ccoc3C)[C@]1([H])CCO2,-,-,-,22.98,-
COCC(=O)N1CCC(c2cc(-c3ccc(OC)cc3)n[nH]2)C1 (centres undefined),1.972,6.977,15.16,-21.31,9.929
Cc1ccc(N[C@@H]2CN(Cc3cc(C)on3)C[C@@H]3CCCO[C@@H]32)nn1,-17.45,1.869,-6.323,-,16.67
Cc1nc(C(C)C)sc1C(=O)NCCSc1ccccn1,-9.904,0.5181,3.938,12,15.05
CN(C)CCN1CCN(Cc2ccco2)Cc2cccnc21.O=C(O)C(F)(F)F.O=C(O)C(F)(F)F.O=C(O)C(F)(F)F,-,-,-,9.059,-
COc1cc(CNc2cnn(CCN3CCOCC3)c2)cc(OC)c1,-11.66,3.365,-8.266,21.36,19.51
Fc1ccc(CN2CCCC(c3cc4ncccc4[nH]3)C2)cc1 (centres undefined),8.567,1.916,-16.13,-0.4017,11.51
Fc1cccc(Cl)c1CN1CCn2c(nnc2C2CC2)C1,-7.135,-39.22,-29.46,26.28,14.4
COCCN1CCN(C(C)C(=O)Nc2ccnn2C(C)C)CC1 (centres undefined),-6.453,3.743,-1.364,9.214,11.54
O=C(O)C(F)(F)F.[H][C@@]12CN(Cc3cccs3)CCO[C@]1([H])CN(S(=O)(=O)CCC)C2,-,-,-,-9.246,-
CC(C)Cc1nc(CS(=O)(=O)C(C)C(=O)N2CCOCC2)no1 (centres undefined),-22.88,2.463,-12.76,19.63,6.579
CCCc1nc(CNc2ccc(F)c(F)c2)no1,-11.74,5,-3.378,-60.25,-8.108
CCS(=O)(=O)NC[C@]12COC[C@H]1CN(Cc1sccc1C)C2,-25.7,6.897,-13.42,-,11.76
CN(C)C(=O)CN1CCOCC2(C1)CN(c1ncc(F)cn1)CCO2 (centres undefined),2.469,4.42,-1.553,-,11.71
CC(Cn1cncc1-c1cnn(Cc2ccccc2)c1)N1CCCCC1 (centres undefined),-1.728,4.52,-19.98,-,13.99
O=S1(=O)CCCN1Cc1coc(-c2ccc(C(F)(F)F)cc2)n1,-2.561,-2.116,0.3689,-19.17,15.15
[H][C@@]12C[C@@H](Oc3cccnc3)CN1CCN(C(=O)c1cccn1C)C2,-,-,-,39.05,-
Cc1ncc2c(n1)CN(Cc1noc(C3CC3)n1)CC2,-2.119,5.344,-11.06,14.3,32.88
CC1CCN(CCNC(=O)C2CCN(C(=O)NC(C)C)CC2)CC1,-27.36,2.956,-8.052,27.38,28.77

The first 2 entries again:

Compound,Pks13 thioesterase,TcHisRS,ClpP1P2,Leishmania in macrophages,LiHisRS
CC(C)N1CCn2c(COCC3CCOCC3)cnc2C1C (centres undefined),-16.7,4.813,4.079,-,12.82
COc1cccc(Cn2cc(N3C(=O)CCC3=O)cn2)c1,-5.403,5.263,-8.159,-27.97,5.31

Data taken from ChEMBL document CHEMBL3988442, “University of Dundee, Small-Polar-MMV Screening Library” (2021).